Source: doi:10.1371/journal.pone.0140310, primary screening data, rounded.

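Human melanoma cells were exposed to a pair of drugs for 72 h in 1,536-well plates and read by automated microscopy after fixing and staining. Values are the share of nuclei positive for cleaved PARP as a percentage of the same share in the DMSO control: 100 is the control level, higher means more apoptosis. Concentrations were fixed for each drug; these are the higher of two levels. These are primary screening values without error estimates. The marker varies much from line to line, for technical or biological reasons.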 Only some of the drugs and lines screened are listed, without regard to their results. A dash means that no value is listed here.

Drug key:
vatalanib (10 µM): Clc1ccc(Nc2nnc(Cc3ccncc3)c3ccccc23)cc1
BI-78D3 (1 µM): O=c1[nH]nc(Sc2ncc([N+](=O)[O-])s2)n1-c1ccc2c(c1)OCCO2
T0901317 (7 µM): O=S(=O)(c1ccccc1)N(CC(F)(F)F)c1ccc(C(O)(C(F)(F)F)C(F)(F)F)cc1
GSK650394 (0.8 µM): O=C(O)c1ccc(-c2c[nH]c3ncc(-c4ccccc4)cc23)cc1C1CCCC1
OSU-03012 (5 µM): NCC(=O)Nc1ccc(-n2nc(C(F)(F)F)cc2-c2ccc3c(ccc4ccccc43)c2)cc1
NVP-BEZ235 (0.02 µM): Cn1c(=O)n(-c2ccc(C(C)(C)C#N)cc2)c2c3cc(-c4cnc5ccccc5c4)ccc3ncc21
OSI-906 (2 µM): C[C@]1(O)C[C@@H](c2nc(-c3ccc4ccc(-c5ccccc5)nc4c3)c3c(N)nccn32)C1
PLX4720 (0.4 µM): CCCS(=O)(=O)Nc1ccc(F)c(C(=O)c2c[nH]c3ncc(Cl)cc23)c1F
CX-4945 (2 µM): O=C(O)c1ccc2c(c1)nc(Nc1cccc(Cl)c1)c1ccncc12
KU-55933 (5 µM): O=c1cc(-c2cccc3c2Sc2ccccc2S3)oc(N2CCOCC2)c1
YM155 (0.002 µM): COCC[n+]1c2c(n(Cc3cnccn3)c1C)C(=O)c1ccccc1C2=O

Combination,COLO 829,A2058,IPC-298,A375,SK-MEL-30,RPMI-7951,UACC-62,SK-MEL-5
PLX4720 and YM155,240,546,93.5,167,285,110,188,893
OSU-03012 and GSK650394,75.8,60.1,88.2,-,801,66.1,224,135
YM155 and BI-78D3,93.8,1240,60.8,43.4,100,166,240,657
YM155 and T0901317,133,541,262,147,139,344,95.4,315
KU-55933 and vatalanib,170,214,69.2,89.2,34.6,92.9,382,189
CX-4945 and vatalanib,120,142,47.3,60.2,79.6,484,159,82.3
GSK650394 and KU-55933,71.2,234,213,37.2,50.9,94.1,37.9,72.8
BI-78D3 and OSI-906,158,51.1,94.1,61.8,67.0,198,168,55.0
PLX4720 and CX-4945,382,122,244,343,265,315,276,299
PLX4720 and OSU-03012,133,55.7,332,-,573,122,229,649
GSK650394 and CX-4945,324,261,89.6,-,151,324,146,134
T0901317 and NVP-BEZ235,68.3,137,57.4,206,112,101,209,196
KU-55933 and OSI-906,114,53.5,53.2,99.2,57.9,71.1,326,114
OSI-906 and vatalanib,115,180,310,82.7,121,25.7,272,566
KU-55933 and YM155,158,1000,149,365,309,173,666,3100
OSI-906 and T0901317,127,82.8,88.3,235,80.6,176,133,49.1
T0901317 and GSK650394,118,104,63.5,200,131,91.4,321,125
OSI-906 and GSK650394,145,39.6,52.7,-,56.8,149,124,103
CX-4945 and T0901317,489,205,49.8,150,86.5,187,195,1440
YM155 and OSU-03012,303,749,153,-,1040,208,225,640
CX-4945 and OSU-03012,57.8,174,169,-,776,65.0,167,480
NVP-BEZ235 and KU-55933,97.6,66.3,168,71.5,204,67.5,213,54.5
OSU-03012 and vatalanib,340,166,182,-,2110,115,244,463
T0901317 and PLX4720,108,113,132,357,76.4,21.5,351,276
KU-55933 and CX-4945,161,220,110,299,170,224,456,397
vatalanib and BI-78D3,35.0,123,330,139,112,284,248,204
CX-4945 and YM155,44.9,669,296,437,88.0,365,267,475
OSI-906 and OSU-03012,149,79.0,270,-,927,40.6,133,161
PLX4720 and GSK650394,268,98.1,104,-,112,45.0,156,56.1
PLX4720 and OSI-906,64.1,94.6,217,117,132,56.6,292,172
T0901317 and OSU-03012,107,91.5,176,254,2170,576,275,269
BI-78D3 and KU-55933,108,110,119,131,51.8,150,141,63.8
NVP-BEZ235 and BI-78D3,139,150,209,234,88.8,90.4,221,259
CX-4945 and OSI-906,263,338,134,714,221,153,248,388
GSK650394 and BI-78D3,249,123,64.6,-,38.5,41.8,93.7,98.5
OSU-03012 and KU-55933,326,45.4,83.7,81.1,199,81.7,143,419
T0901317 and vatalanib,356,75.6,168,203,131,145,126,40.0
CX-4945 and BI-78D3,180,188,161,88.9,102,254,220,194
PLX4720 and BI-78D3,371,79.5,71.9,224,117,122,289,50.0

5 of the entries, repeated:

Combination	COLO 829	A2058	IPC-298	A375	SK-MEL-30	RPMI-7951	UACC-62	SK-MEL-5
OSI-906 and GSK650394	145	39.6	52.7	-	56.8	149	124	103
T0901317 and PLX4720	108	113	132	357	76.4	21.5	351	276
PLX4720 and CX-4945	382	122	244	343	265	315	276	299
OSU-03012 and vatalanib	340	166	182	-	2110	115	244	463
PLX4720 and BI-78D3	371	79.5	71.9	224	117	122	289	50.0